The text below walks through data of article PMC7819943, “Rice protein-binding microarrays: a tool to detect cis-acting elements near promoter regions in rice”.

Sequences of proteins named here, by UniProt entry; tags and fusion partners are left off.
UniProt Q0JBA9, entry or part of it: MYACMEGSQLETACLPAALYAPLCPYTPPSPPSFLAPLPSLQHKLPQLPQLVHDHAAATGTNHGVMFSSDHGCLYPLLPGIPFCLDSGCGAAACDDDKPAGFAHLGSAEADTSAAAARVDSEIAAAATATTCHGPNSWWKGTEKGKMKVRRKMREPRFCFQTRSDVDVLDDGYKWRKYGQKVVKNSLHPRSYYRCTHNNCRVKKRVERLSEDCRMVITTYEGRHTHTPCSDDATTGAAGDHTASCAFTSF

The other results are listed elsewhere or left out.

For the assay, the target named is OsWRKY34 (Oryza sativa, UniProt Q0JBA9 1-250). In words: protein-binding microarray (RPBM); PBS, 2% BSA, 51.3 ng/ul salmon testes DNA, 50 uM zinc acetate, 200 nM TF, 25 C, 1 h; high values mean tight binding. Particulars: protein: recombinant; tags: N-terminal polyhistidine and DsRed monomer fusion (pET32a); label: CyDye5-dUTP incorporated in the synthesized complementary strand; 3' TTTTT single-stranded linker to array surface; dsDNA, one strand shown. A digest of the protocol: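 Binding signal here means per-feature fluorescence intensity in arbitrary units. The values were read on an Axon 4000B scanner after a custom Agilent array, double-stranded by primer extension with Cy5-dUTP, was incubated with 200 nM protein at 25 °C for 1 h in PBS with 2% BSA, salmon testes DNA and 50 µM zinc acetate, then washed. The proteins were transcription factors with an N-terminal polyhistidine tag and DsRed, expressed in E. coli BL21-CodonPlus and purified on Ni–NTA.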
In the case of “CATCCGTATGATTCGACTTTTTTTTCACGTTGATTTTATACGGAGTCACCTAGTGCAG”, the binding signal was 9050 fluorescence intensity (a.u.).
The figure for “CACAGCCTGACGGTATCACTCACGCACACCAACTGCTCGCCGGAGTCACCTAGTGCAG” is 10600 fluorescence intensity (a.u.); for “CTCTACTGCAAACTGTTGTTCCTGCTTGCTCTAACACATTCGGAGTCACCTAGTGCAG” it is 9120 fluorescence intensity (a.u.).
Regarding “AGTCAAACTACACCTTTTCCTTTCGTGGCTGATTCCCCTACGGAGTCACCTAGTGCAG”, the binding signal was 8620 fluorescence intensity (a.u.).
On to “AATTAAATATAGCAGGAGGAGCATGGAGGCATAGGCTTTACGGAGTCACCTAGTGCAG”, for which the binding signal is 9150 fluorescence intensity (a.u.).
On to “CAAAGTTTGTTTCATGCACATTTTTTCTCATGTTAAATTACGGAGTCACCTAGTGCAG”, for which the binding signal was 8590 fluorescence intensity (a.u.).
As for “AGTTGTGGTGGGGTAGTGAGCAATAACATTTTTCATAATTCGGAGTCACCTAGTGCAG”, the binding signal was 12000 fluorescence intensity (a.u.).
For “CGGCCTCGAATTTCGTCTCCTCGCCCACCGCTTGCGCCGACGGAGTCACCTAGTGCAG” the value was 10300 fluorescence intensity (a.u.); for “CGCCACCGTCACCGACCGCGCGCGCACGCACGCACACTCCCGGAGTCACCTAGTGCAG”, 10500 fluorescence intensity (a.u.).
Turning to “CTGGGGCTTCTTGCTTCTTGCTCGCTCGCTGCTGTTTTACCGGAGTCACCTAGTGCAG”, the binding signal was 14800 fluorescence intensity (a.u.).
With “GGAAGCCGAATGGGGAGGGGTAGTACAGTCATTTCATAATCGGAGTCACCTAGTGCAG”, the binding signal is 13000 fluorescence intensity (a.u.).
For the sequence “TCCTGTGGTACCCCTGTCGCCGAATCTACGCATCTGCCAACGGAGTCACCTAGTGCAG”, the binding signal was 8140 fluorescence intensity (a.u.).
As to “TCATCTGCTTCTCTCTCTCATCTCTCTTCTGCCATTGTTCCGGAGTCACCTAGTGCAG”, the binding signal was 10800 fluorescence intensity (a.u.).
Take “TGTTTCAGTTACTCCCTCCCATATCGTTTGACCCCGACTCCGGAGTCACCTAGTGCAG”: the binding signal was 9990 fluorescence intensity (a.u.).
The figure for “GGCTGCACTCCGGTACCAATCCACTTTTCCTTCCACGCTACGGAGTCACCTAGTGCAG” is 11900 fluorescence intensity (a.u.).
The figure for “CAACCACCACCGTGCACGCCACTGACGCCATGGCCGGACGCGGAGTCACCTAGTGCAG” is 8270 fluorescence intensity (a.u.).
For “GCGCGCCGCCATGTCCGCTCCATCCCGGCCGCCACGCCCGCGGAGTCACCTAGTGCAG” the value was 11800 fluorescence intensity (a.u.); for “TTTTCATTGTTTACTTACATTGCTGGTGTTCATGTCAATCCGGAGTCACCTAGTGCAG”, 8340 fluorescence intensity (a.u.); for “GGGTGTGTGCGCATGTGTGTTTGTCGTGTATTAAAAAAAACGGAGTCACCTAGTGCAG”, 9130 fluorescence intensity (a.u.).
Regarding “ATGTGGTCCTCGGTGTTCTCGTTCCCATCTTTCTCTCTCTCGGAGTCACCTAGTGCAG”, the binding signal was 14900 fluorescence intensity (a.u.).
As for “TTGGTATTATTCACATCATGACTGATTGACGTTTCTCATACGGAGTCACCTAGTGCAG”, the binding signal is 11600 fluorescence intensity (a.u.).
Regarding “CTTCTGTCATATCACCTTGCCGCTGCTTCTGATCATCTCCCGGAGTCACCTAGTGCAG”, the binding signal is 8670 fluorescence intensity (a.u.).
For “CAGAGTCACCTTCCTTTCATTTCCTTTCTCTTTTCTCTTTCGGAGTCACCTAGTGCAG”, the binding signal was 9680 fluorescence intensity (a.u.).
The figure for “CTAGCTGTGCGCGTAACGTTTTCTTTGCGCTTTTTCTGCTCGGAGTCACCTAGTGCAG” is 12200 fluorescence intensity (a.u.); for “TCCCCACCGTTGACCGAAGTTGACATCCAAGAATCCAGACCGGAGTCACCTAGTGCAG” it is 8290 fluorescence intensity (a.u.); for “GGTTCTTGGAATCCACCGGTATTTTTGATCCATCCATCCACGGAGTCACCTAGTGCAG” it is 9440 fluorescence intensity (a.u.).
Turning to “GTGAACAATGCCCAATTATGGTAGTAACACCCACTTTGTACGGAGTCACCTAGTGCAG”, the binding signal was 8500 fluorescence intensity (a.u.).
“CGGAGCGGGAGAGGGATAGGGAGATCGCGGGAGGGTAGAACGGAGTCACCTAGTGCAG”: the binding signal is 9430 fluorescence intensity (a.u.).
Turning to “GGCTGTTGGGTTTGTGGGCTTGTGCTAGGCGTCCCAGCTACGGAGTCACCTAGTGCAG”, the binding signal was 17800 fluorescence intensity (a.u.).
With “CCATCTATATATACTGTTGTTTTCTTAATTACCATCTTGTCGGAGTCACCTAGTGCAG”, the binding signal is 9630 fluorescence intensity (a.u.).
For the sequence “ATGCCTTGTGTTCGGCGAGGCCTTCGCCTTCTTGGGTCCGCGGAGTCACCTAGTGCAG”, the binding signal was 8700 fluorescence intensity (a.u.).
As for “AGGAGGAGGAGGAGGAGGAGGAGGAGGCGGTGGGAGGGATCGGAGTCACCTAGTGCAG”, the binding signal was 14800 fluorescence intensity (a.u.).
On to “TCTGGGTCATCCGGAGGCTCATTCGTCTCAAATTCAACATCGGAGTCACCTAGTGCAG”, for which the binding signal is 8240 fluorescence intensity (a.u.).
Regarding “CGTGTCCAACTTTGATTGTTCGTCTTATTTATTTTTAAAACGGAGTCACCTAGTGCAG”, the binding signal is 9530 fluorescence intensity (a.u.).
On to “CCTTTGTTAGACATGTGATGTACATATCAATAGTATTAATCGGAGTCACCTAGTGCAG”, for which the binding signal is 8690 fluorescence intensity (a.u.).
For the sequence “ACTCAGTATATGATTAGTAACCTCGCTTTGGTTTACATCACGGAGTCACCTAGTGCAG”, the binding signal is 8140 fluorescence intensity (a.u.).
For “TTGTATTCTTGTGCAAATGCACTGCCTAATTGGCCAGACCCGGAGTCACCTAGTGCAG” the value was 8040 fluorescence intensity (a.u.); for “CCATATCTAATATGTTTGATGGTTGGTTTTTGCGGTTGACCGGAGTCACCTAGTGCAG”, 9240 fluorescence intensity (a.u.).
With “AAGTACCCCTTTTCGATTTTCTCTCTCTTGAACCATTTGCCGGAGTCACCTAGTGCAG”, the binding signal is 8390 fluorescence intensity (a.u.).
For the sequence “CTAGCATATCTGTGTGTCTGTCTGTCTATCTATCTAATCTCGGAGTCACCTAGTGCAG”, the binding signal was 9820 fluorescence intensity (a.u.).
For “TGTCCTTATCATCTTTGATCAAGTTTTTCTCTTTTCCTATCGGAGTCACCTAGTGCAG” the value was 9480 fluorescence intensity (a.u.).
As for “GTGTGTATATAGTATTAGTACGTTCTCCTCTACCTACCAACGGAGTCACCTAGTGCAG”, the binding signal is 8060 fluorescence intensity (a.u.).
